{
  "source": "paper PMC6829517",
  "about": "(International Journal of Molecular Sciences, 2019)",
  "test": "general procedure: recombinant production",
  "conditions": "late stage modification step, analytical RP-HPLC",
  "note": "HELM strings list residues between dots; [ac] is acetyl, [am] amide, other brackets name non-standard units.",
  "data": [
    {"substance": "PEPTIDE1{G.G.A.G.H.V.P.E.Y.F.[dV].G.I.G.T.P.I.S.F.Y.G}$PEPTIDE1,PEPTIDE1,1:R1-8:R3$$$V2.0", "values": [
      {"measurement": "final HPLC purity", "value": "> 99.9", "unit": "%"}
    ]}
  ]
}
